A word on the Kd: it is the equilibrium constant for the complex coming apart.

Protein sequences, listed by entry. Tags and fused reporters are not part of them. Lines headed by an entry give the natural chain unless they say otherwise; changes in a name come on top.
UniProt C0H4E4: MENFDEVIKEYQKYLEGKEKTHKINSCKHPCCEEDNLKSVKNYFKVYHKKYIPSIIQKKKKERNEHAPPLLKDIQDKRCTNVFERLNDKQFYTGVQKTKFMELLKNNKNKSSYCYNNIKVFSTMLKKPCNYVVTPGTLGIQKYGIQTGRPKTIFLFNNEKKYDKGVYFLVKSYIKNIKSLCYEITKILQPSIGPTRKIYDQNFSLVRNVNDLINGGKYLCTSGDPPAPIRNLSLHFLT

The text below walks through data of article PMC7907060 (Scientific Reports, 2021).

The target in the experiment is T1, PfApicortin (Plasmodium falciparum, UniProt C0H4E4).
T1 construct: gene DCX
Nature of the experiment: biochemical.

As to `CC/C(=C(\c1ccccc1)c1ccc(OCCN(C)C)cc1)c1ccccc1` [TMX, Tamoxifen], the Kd was determined as 3.7 µM.
